This is an account of results in paper PMC5112790.

By UniProt entry, the sequences of proteins in these tests, tags left out.
UniProt P19139: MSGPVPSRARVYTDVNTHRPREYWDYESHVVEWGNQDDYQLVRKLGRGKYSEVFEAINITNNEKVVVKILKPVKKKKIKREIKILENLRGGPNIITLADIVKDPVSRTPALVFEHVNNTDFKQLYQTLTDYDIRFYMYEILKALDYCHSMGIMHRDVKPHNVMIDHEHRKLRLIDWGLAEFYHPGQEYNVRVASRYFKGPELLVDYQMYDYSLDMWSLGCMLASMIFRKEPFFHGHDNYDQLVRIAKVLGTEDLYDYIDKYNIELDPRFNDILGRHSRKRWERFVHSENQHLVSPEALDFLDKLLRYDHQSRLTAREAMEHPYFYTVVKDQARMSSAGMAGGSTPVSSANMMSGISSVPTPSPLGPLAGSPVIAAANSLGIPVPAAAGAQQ

Results are given in words; binding and its absence hold for the method and conditions named. In cells and extracts the contact can be indirect. Some entries that bind do so weakly or less than the wild type.

The assay addresses Protein kinase casein kinase 2 (CK2) (rat (endogenous in primary rat articular chondrocytes)) (UniProt P19139). The assay can be described thus: co-IP; extracts of primary rat articular chondrocytes incubated with antibodies, precipitated with protein A-agarose, western blot; untreated control cells (CK2-HSP90 also after DRB treatment).

B1: alpha B-crystallin (heat-shock protein b5) (protein, UniProt P23928 1-175)
chain: MDIAIHHPWIRRPFFPFHSPSRLFDQFFGEHLLESDLFSTATSLSPFYLRPPSFLRAPSWIDTGLSEMRMEKDRFSVNLDVKHFSPEELKVKVLGDVIEVHGKHEERQDEHGFISREFHRKYRIPADVDPLTITSSLSSDGVLTVNGPRKQASGPERTIPITREEKPAVTAAPKK
Turning to B1, the binding entry was “binds”.
